Measured data: PubChem BioAssay AID504764 (Drosophila RNAi Screening Center, 2011)
The screen tested about 22,000 reagents; below is a random part of those with a known target gene and a result. Of all reagents, 403 (1.9%) are marked active. 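Unnormalised raw counts per well; ratio z-scores behind the hit calls and whether each hit raises or lowers signal are not deposited.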 Entries without a mark were called inactive. The record does not give: the amount of reagent.

Aim: 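Genes whose knock-down alters Notch-dependent transcription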 (primary screen)
Cells: Drosophila Kc167 cells
Knock-down reagent: long dsRNA against Drosophila genes
Duration: about 5 days (4 days dsRNA, then 24 h after transfection)
Conditions: transfection of constitutively active membrane-tethered Notch lacking the extracellular domain, read 24 h later
Detection: 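Light from a Notch-responsive E(spl)m3 luciferase reporter under active Notch, with control-promoter and no-Notch reporter wells to normalise; raw counts from paired wells a and b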
Reading the numbers: induced reporter light, run 1, well a and induced reporter light, run 1, well b: higher = more light from the Notch target reporter with active Notch; control promoter light, run 1, well a and control promoter light, run 1, well b: higher = more light from the viral control promoter (cell number, transfection, viability); uninduced reporter light, run 1, well a: higher = more light from the Notch target reporter without active Notch
Hit rule: 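Hit if the duplicate-averaged log2 ratio of induced to control-promoter light gives a plate-wise z beyond ±2, or induced to uninduced beyond ±1.8; weak-control or discordant-duplicate wells dropped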
Meaning of the calls: active = modifier hit (raised or lowered Notch signal); inactive = not a hit

PIG-Q [DRSC19138]
- induced reporter light, run 1, well a: 1.09e5
- induced reporter light, run 1, well b: 89285
- control promoter light, run 1, well a: 96795
- control promoter light, run 1, well b: 89955
- uninduced reporter light, run 1, well a: 9120

sub [DRSC06125]
- induced reporter light, run 1, well a: 64595
- induced reporter light, run 1, well b: 70365
- control promoter light, run 1, well a: 1.45e5
- control promoter light, run 1, well b: 1.56e5
- uninduced reporter light, run 1, well a: 7495

Rrp5 [DRSC15862]
- induced reporter light, run 1, well a: 1.45e5
- induced reporter light, run 1, well b: 1.41e5
- control promoter light, run 1, well a: 1.75e5
- control promoter light, run 1, well b: 1.69e5
- uninduced reporter light, run 1, well a: 10540

CHES-1-like [DRSC18447]
- induced reporter light, run 1, well a: 1.25e5
- induced reporter light, run 1, well b: 1.20e5
- control promoter light, run 1, well a: 2.00e5
- control promoter light, run 1, well b: 1.99e5
- uninduced reporter light, run 1, well a: 10140

cGlr2 [DRSC04017]
- induced reporter light, run 1, well a: 1.20e5
- induced reporter light, run 1, well b: 1.49e5
- control promoter light, run 1, well a: 2.02e5
- control promoter light, run 1, well b: 2.14e5
- uninduced reporter light, run 1, well a: 8020

CG2875 [DRSC18231]
- induced reporter light, run 1, well a: 36105
- induced reporter light, run 1, well b: 49570
- control promoter light, run 1, well a: 49705
- control promoter light, run 1, well b: 43940
- uninduced reporter light, run 1, well a: 3445

RecQ4 [DRSC11265]
- induced reporter light, run 1, well a: 1.71e5
- induced reporter light, run 1, well b: 1.44e5
- control promoter light, run 1, well a: 1.99e5
- control promoter light, run 1, well b: 1.19e5
- uninduced reporter light, run 1, well a: 18288

CG2975 [DRSC00556]
- induced reporter light, run 1, well a: 1.07e5
- induced reporter light, run 1, well b: 1.10e5
- control promoter light, run 1, well a: 1.02e5
- control promoter light, run 1, well b: 68535
- uninduced reporter light, run 1, well a: 10245

CG13800 (retired record) [DRSC08334]
- induced reporter light, run 1, well a: 1.08e5
- induced reporter light, run 1, well b: 96660
- control promoter light, run 1, well a: 1.76e5
- control promoter light, run 1, well b: 1.32e5
- uninduced reporter light, run 1, well a: 6790

CG14502 [DRSC06473]
- induced reporter light, run 1, well a: 81425
- induced reporter light, run 1, well b: 1.12e5
- control promoter light, run 1, well a: 1.91e5
- control promoter light, run 1, well b: 1.54e5
- uninduced reporter light, run 1, well a: 9010

Acp63F [DRSC08137]
- induced reporter light, run 1, well a: 1.58e5
- induced reporter light, run 1, well b: 1.61e5
- control promoter light, run 1, well a: 1.75e5
- control promoter light, run 1, well b: 1.87e5
- uninduced reporter light, run 1, well a: 6715

CG4734 [DRSC06885]
- induced reporter light, run 1, well a: 1.20e5
- induced reporter light, run 1, well b: 92975
- control promoter light, run 1, well a: 1.22e5
- control promoter light, run 1, well b: 95555
- uninduced reporter light, run 1, well a: 8738

2 entries from above, sorted by “induced reporter light, run 1, well a”, high to low.
Rrp5 [DRSC15862]
- induced reporter light, run 1, well a: 1.45e5
- induced reporter light, run 1, well b: 1.41e5
- control promoter light, run 1, well a: 1.75e5
- control promoter light, run 1, well b: 1.69e5
- uninduced reporter light, run 1, well a: 10540

CHES-1-like [DRSC18447]
- induced reporter light, run 1, well a: 1.25e5
- induced reporter light, run 1, well b: 1.20e5
- control promoter light, run 1, well a: 2.00e5
- control promoter light, run 1, well b: 1.99e5
- uninduced reporter light, run 1, well a: 10140
